# Source: PubChem BioAssay AID662 (National Center for Advancing Translational Sciences (NCATS), 2007)
# Several values for one entry are separate records, joined by “and”; a condition that tells them apart may be missing. Identical values can stand only once. This is one part of the list. Further columns of the screen follow, without active or inactive calls. Compounds called inactive in the main read-out are mostly missing here. The note in brackets gives the kind of curve behind each potency; many fits are weak.
# Assay: Cell signaling CRE-BLA (Fsk stim)
# Conditions: CHO CRE-bla reporter (cAMP response element driving beta-lactamase), forskolin EC10, beta-lactamase ratio; measured here: 460 nm blue channel
# Text: NIH Molecular Libraries Screening Centers Network [MLSCN]
# NIH Chemical Genomics Center [NCGC]
# Assay Provider: Marshall W. Nirenberg, U.S. National heart lung & blood institute
# Memories persist for different lengths of time, from seconds or minutes to a lifetime. There are two kinds of memory: short-term memory (STM) and long-term memory (LTM). STM lasts for minutes to hours, which maybe mediated by modifications of molecules involved in synaptic functions. LTM lasts for days or longer, and may be due to the formation of new synapses or restructuring of existing synapses. LTM, but not STM, requires gene transcription and synthesis of proteins. CREB (cyclic-AMP Responsive Element Binding Protein) is one of the candidates plays an important role for enhancement of some types of LTM. CREB, a family of transcription factors, regulates the transcription of genes containing cAMP Responsive Elements (CRE). CRE is a nucleotide sequence often found in the promoter regions of genes that are binding sites for CREB.
# Using a beta-lactamase reporter-gene under control of cAMP responsive element, a cell-based assay [CellSensor(TM) CRE-bla CHO developed by Invitrogen Corp.] was used to measure forskolin-induced signaling. Library compounds were measured for their ability to modulate positively or negatively the action of EC10 NKH 477, a water soluble forskolin, on reporter gene activity. Compounds were screened in a titration series in 1536-well format. Positive and negative modulators were identified based on the AC50 values derived from the screening data.
# NCGC Assay Protocol Summary
# 2000 cells/5uL in Opti-MEM medium containing 0.5% dialyzed FBS, 0.1 mM NEAA, 1 mM sodium pyruvate and 10 mM HEPES was dispensed into 1536-well plates and cells were cultured at 37 degrees Celsius overnight. […] And then the plates were incubated at 37 degrees Celsius for 3 hours. 1 uL of CCF4-dye mixture was added to each well. After incubated at room temperature for 2 hours the plates were measured on an EnVision plate reader at Excitation 405nm, Emission1=460nm and Emission 2=530nm. The %Activity was determined from the ratio of 460nm/530nm.
# Keywords: NIH Roadmap, MLSCN, MLSMR, qHTS, NCGC, CRE, beta-lactamase reporter-gene assay.
row,Structure (SMILES),AC50
1,COC(=O)CSC1=C(C#N)C(c2ccccc2OC)C(C(=O)OC)C(=O)N1 (stereo unspecified),"1 µM [falling, partial curve]"
2,CCOC(=O)c1sc(NC(=O)CSc2nnc(C(C)C)n2CC)nc1C,"15.8 µM [rising, single point]"
3,Cc1coc2c(C)c3oc(=O)c4c(c3cc12)CCCC4,"12.6 µM [rising, partial curve]"
4,CCOc1ccccc1Nc1ncnc2c1cnn2-c1ccccc1,"10 µM [rising, partial curve]"
5,CCc1cccc2nc3c(c([Si](C)(C)C)c12)Cn1c-3cccc1=O,"10 µM [rising, partial curve]"
6,COCCCn1c(-c2ccsc2)nc2c1c(=O)[nH]c(=O)n2Cc1ccccc1,"12.6 µM [rising, single point]"
7,CC(C)Sc1ncnc2c1oc1ccccc12,"12.6 µM [rising, partial curve]"
8,CCOC(=O)c1c(NC(=O)c2cccs2)sc(C)c1CC,"7.94 µM [rising, partial curve]"
9,COc1cccc(C(c2nnnn2C(C)(C)C)N2CCN(C3CCCCC3)CC2)c1OC (stereo unspecified),"0.501 µM [falling, full curve]"
10,COc1ccccc1-c1c(C)nn2c(N3CCCCCC3)cc(C)nc12,"15.8 µM [falling, single point]"
11,Cc1cccc(NC(=O)c2cc(-c3ccco3)nc3ccccc23)n1,"15.8 µM [rising, single point]"
12,COc1ccc(C)cc1-n1nnnc1SCc1cn2ccsc2n1,"15.8 µM [rising, single point]"
13,Nc1c(C(=O)NC2CC2)c2nc3ccccc3nc2n1-c1ccc2c(c1)OCO2,"7.94 µM [rising, partial curve]"
14,CCCc1c(-c2ccc(O)cc2)nn(-c2ccc(O)cc2)c1-c1ccc(O)cc1,"15.8 µM [falling, partial curve]"
15,Cc1c(N=Cc2ccncc2)c(=O)n(-c2ccccc2)n1C,"0.00398 µM [rising, full curve, poor fit]"
16,COc1ccc2nc3c(c([Si](C)(C)C(C)(C)C)c2c1)Cn1c-3cccc1=O,"12.6 µM [rising, single point]"
17,COC(=O)c1cc(OC)c(OC)cc1NC(=O)CN1CCOCC1,"10 µM [rising, partial curve]"
18,CC12CN3CC(C)(CN(C1)C3c1ccc3ccccc3c1O)C2=O (stereo unspecified),"15.8 µM [falling, single point]"
19,Oc1c(Cl)cc(Cl)c(Cl)c1Cc1c(O)c(Cl)cc(Cl)c1Cl,"0.251 µM [falling, full curve]"
20,CC(C)[C@@H]1N[C@]2(C(=O)Nc3ccccc32)[C@@H]2C(=O)N(c3cccc(C(F)(F)F)c3)C(=O)[C@@H]21,"0.00794 µM [falling, full curve, poor fit]"
21,Cc1ccc(OC(=O)NC2CCS(=O)(=O)C2)cc1C (stereo unspecified),"3.16 µM [falling, full curve, poor fit]"
22,COc1ccc(-n2c(SCC(=O)c3c(N)n(C)c(=O)n(C)c3=O)nc3ccccc32)cc1,"10 µM [rising, partial curve]"

row,Structure (SMILES),AC50
1,CCCCC(=O)OCCNC(=O)c1cc2ccccc2oc1=O,"0.00316 µM [falling, full curve, poor fit]"
2,COc1cccc(N2C(=O)C3C(C2=O)C2C=CC3C23CC3)c1 (stereo unspecified),"1 µM [falling, partial curve]"
3,O=C(COc1ncnc2ccccc12)N1CCOCC1,"5.01 µM [falling, single point]"
4,COc1ccc(-c2noc(CCC(=O)Nc3cc(Cl)c(OC)cc3OC)n2)cc1,"1 µM [falling, partial curve, poor fit]"
5,COc1ccc(CCNC(=O)C2=COCCO2)cc1,"0.126 µM [falling, partial curve, poor fit]"
6,COc1ccc(-c2cc(C(F)F)n3ncc(C(=O)N4CCSCC4)c3n2)cc1,"12.6 µM [rising, partial curve]"
7,CS(=O)(=O)Nc1cccc(-c2ccc3ncnc(NC4CC4)c3c2)c1,"7.94 µM [rising, partial curve]"
8,COc1ccc(NC(=O)c2cnc3ccccn3c2=O)cc1OC,"7.94 µM [rising, partial curve]"
9,O=C(Nc1nccs1)c1cnccn1,"0.0501 µM [falling, full curve]"
10,Cc1c(C(=O)NCc2ccco2)sc2nc(-c3ccccc3)cn12,"6.31 µM [rising, partial curve]"
11,CCOC(=O)c1c(NC(=O)c2cccs2)sc2c1CCN(C(=O)OCC)C2,"10 µM [rising, partial curve]"
12,COc1ccc(-c2c3c(=O)n(C)c(=O)n(C)c3cn2-c2cc(OC)ccc2OC)cc1,"10 µM [rising, single point]"
13,COC(=O)[C@@H]1[C@@H]2C[C@H]3c4[nH]c5ccccc5c4CCN3C[C@@H]2CC[C@@H]1O,"25.1 µM [falling, single point] and 25.1 µM [falling, partial curve, poor fit]"
14,COc1ccc(S(=O)(=O)n2nc(OC(=O)c3ccco3)cc2N)cc1,"12.6 µM [falling, single point]"
15,CC1(C)Cc2c(sc3c2c(=N)n(Cc2ccco2)c(=O)n3Cc2ccc(F)cc2)CO1,"0.794 µM [rising, full curve, poor fit]"
16,Cc1ccc(-n2c(SCC3CCCCO3)nnc2-c2ccco2)cc1 (stereo unspecified),"0.00398 µM [falling, full curve, poor fit]"
17,O=C(NCc1ccccc1)c1c[nH]c2ccc(S(=O)(=O)Nc3ccc4c(c3)OCCO4)cc2c1=O,"5.01 µM [falling, partial curve]"
18,COC(=O)c1cc(-c2ccc(OC)c(OC)c2)on1,"12.6 µM [rising, partial curve]"
19,CCCc1cc(-c2ccc(O)c(OCC)c2)c(C#N)c(N)n1,"1.58 µM [rising, full curve]"
20,COCCn1c(=O)c(-c2ccc(Cl)cc2)nc2cnc(OCc3ccccc3)nc21,"12.6 µM [rising, partial curve, poor fit]"
21,Cc1nn(Cc2ccccc2Cl)c(C)c1N,"0.00316 µM [falling, full curve, poor fit]"
22,CCOc1ccc(Cc2nc(C)c(CC(=O)N3CCOCC3)c(=O)[nH]2)cc1,"0.158 µM [falling, full curve]"

row,Structure (SMILES),AC50
1,COC(=O)c1ccc(Oc2nc(C)cc(Oc3ccccc3)n2)cc1,"15.8 µM [rising, single point]"
2,Cc1ccc2nc(NC(=O)CN(C)S(=O)(=O)c3cccc4nsnc34)sc2c1,"2.51 µM [rising, single point]"
3,CN1CCN(c2nc(-c3cccc(NS(C)(=O)=O)c3)nc3ccccc23)CC1,"25.1 µM [rising, single point]"
4,COc1cc(NC(=O)c2ccco2)c(OC)cc1NC(=O)c1cc(OC)c(OC)c(OC)c1,"2.51 µM [rising, full curve]"
5,CCOC(=O)c1cc2c(=O)n3cccc(C)c3nc2n(CC2CCCO2)c1=NC(C)=O (stereo unspecified),"3.98 µM [rising, partial curve]"
6,COC(=O)c1[nH]c2c(c1C)C(=O)CC(c1cc(OC)ccc1OC)C2 (stereo unspecified),"12.6 µM [rising, partial curve]"
7,C=CCn1c(=O)c2ccccc2n2c(SCc3csc(-c4ccccc4)n3)nnc12,"3.98 µM [rising, single point]"
8,CCOC(=O)c1c(NC(=O)CSc2nnc(-c3ccco3)o2)sc(C(C)=O)c1C,"25.1 µM [rising, single point]"
9,CCOC(=O)c1sc(NC(=S)n2cc(C)cn2)c(C(=O)OCC)c1C,"12.6 µM [rising, single point]"
10,CC1(C)CN=C(N2CCN(c3ncnc4sc5c(c34)CCCC5)CC2)S1,"0.398 µM [rising, partial curve]"
11,O=C(c1ccco1)N1CCN(C(=O)C2CCN(S(=O)(=O)c3cccs3)CC2)CC1,"0.2 µM [falling, full curve, poor fit]"
12,COc1cccc(Cn2c(=O)c(-c3cccs3)nc3cncnc32)c1,"7.94 µM [rising, partial curve]"
13,c1nc(N2CCOCC2)c2cc(-c3ccoc3)ccc2n1,"0.251 µM [falling, full curve]"
14,CC1Cc2ccccc2N1C(=O)Cn1c(=O)oc2cc(S(=O)(=O)NC3CCCC3)ccc21 (stereo unspecified),"12.6 µM [falling, single point]"
15,O=C(CCN1Cc2ccccc2C1)c1ccc2c(c1)OCCO2,"25.1 µM [falling, single point]"
16,O=S(=O)(Nc1ccc(N2CCCCC2)cc1)c1cccs1,"5.01 µM [falling, single point]"
17,Nc1nc(CSc2n[nH]c(-c3ccccc3)n2)nc(Nc2ccccc2)n1,"1.58 µM [rising, partial curve]"
18,N#Cc1cccc(NC(=O)CC2CCCCC2)c1,"0.00398 µM [falling, full curve, poor fit]"
19,Cc1cc(C)n(-c2nc3ccccc3nc2N2CCN(C(=O)c3ccc(F)cc3)CC2)n1,"25.1 µM [rising, partial curve]"
20,COc1ccc(-c2nc3cnc(N4CCOCC4)nc3n(Cc3cccs3)c2=O)cc1,"3.16 µM [rising, full curve]"
21,COc1ccccc1N1CCN(CCN2C(=O)c3ccccc3C(C)(C)C2=O)CC1,"0.0158 µM [rising, full curve, poor fit]"
22,O=C(NCc1ccco1)C(Cc1ccccc1)N1C(=O)C2C3C=CC(C3)C2C1=O (stereo unspecified),"3.98 µM [falling, single point]"
